From patent US4657892A, “Pharmacologically active peptides” (priority 1983, dated 1987)
Read-outs that look alike come from different tables or passages of the source. At least one peptide structure holds a part that was inferred or is arguable (an end, a ring closure or a residue). Non-standard residues stand in square brackets, D forms with d. Residues, ends and D or L forms follow the SMILES beside them.

What was measured:
[1] = system: isolated guinea-pig ileum; assay: opioid activity in the electrically stimulated guinea-pig ileum preparation; format: cell-based; settings: for IC50: isolated guinea-pig ileum, 7 experiments, read-out: IC50 (inhibition of electrically induced contractions by 50%); for inhibiting effect in presence of the opiate antagonist naloxone: naloxone final concentration in the organ bath 900 nM; for rel. value Der. = 100 / rel. value Nor. = 100: relative potency; for rel. value Der. = 100: dermorphin IC50 = 100%; for rel. value Nor. = 100: normorphine IC50 = 100%
Source text: As biological test system for determination of the opioid activity the ileum preparation of the guinea-pig was used (detailed description German application No. 29 21 216, p. 24). […] In addition for a better understanding the IC50 -value can be expressed as 100% for the opiates normorphine and dermorphin (DT-OS No. 30 34 897) and the relative activity of the single substances can be given in comparison to normorphine or dermorphine. The indication of the relative potency has the advantage that by this variations of the sensitivity of the assay are neutralized.
The (*) marked values of table 1 correspond to those which have been described by Castiglione et al. (Peptides, 2, p. 266, table 1, substances 1 and 3: column GPI=guinea-pig ileum preparation).
IC50 -values (nM), see description, of two peptides of the invention (III an IV) in comparison to those of the prior art (dermorphin,I,II) as measured in the isolated guinea-pig ileum. […] The inhibiting effect of the substances I, II, III, and IV was antagonized by addition of the specific opiate antagonist naloxone (final concentration in the organ bath 900 nM); upon further addition of the substances I to IV to the organ bath (in presence of naloxone) no further inhibition could be observed; the inhibiting effect of the substances I-IV has therefore to be considered as specific opiate-like.

[2] = system: isolated guinea-pig ileum; settings: * marked, from Castiglione et al., Peptides 2, p. 266, read-out: IC50 (* values described by Castiglione et al.); cited from earlier work

SMILES | IC50 [1] [µM] | inhibiting effect in presence of the opiate antagonist naloxone [1] | rel. value Der. = 100 [1] | rel. value Nor. = 100 [1] | IC50 [2] [µM]
C[C@@H](NC(=O)[C@@H](N)Cc1ccc(O)cc1)C(=O)N[C@@H](Cc1ccccc1)C(=O)N1CCC[C@H]1C(=O)N[C@@H](Cc1ccc(O)cc1)C(N)=O [Substance I, Tyr--D-Ala--Phe--Pro--Tyr--NH2] (H-Y[dA]FPY-NH2) | 0.1 | antagonized | 3.5 | 110 | –
C[C@@H](NC(=O)[C@H](Cc1ccccc1)NC(=O)[C@@H](C)NC(=O)[C@@H](N)Cc1ccc(O)cc1)C(=O)N[C@@H](Cc1ccccc1)C(N)=O [Substance IV, Tyr--D-Ala--Phe--D-Ala--Phe--NH2] (H-Y[dA]F[dA]F-NH2) | 0.0025 | antagonized | 140 | 3667 | –
C[C@@H](NC(=O)[C@H](Cc1ccccc1)NC(=O)[C@@H](C)NC(=O)[C@@H](N)Cc1ccc(O)cc1)C(=O)N[C@@H](Cc1ccc(O)cc1)C(N)=O [Substance III, Tyr--D-Ala--Phe--D-Ala--Tyr--NH2] (H-Y[dA]F[dA]Y-NH2) | 0.014 | antagonized | 25 | 786 | –
C[C@@H](NC(=O)[C@@H](N)Cc1ccc(O)cc1)C(=O)N[C@@H](Cc1ccccc1)C(=O)NCC(=O)N[C@@H](Cc1ccc(O)cc1)C(N)=O [Substance II, Tyr--D-Ala--Phe--Gly--Tyr--NH2] (H-Y[dA]FGY-NH2) | – | antagonized | 50 | 1571 | 0.007
